These are yes or no findings as the source states them, for the method shown. Binding seen in cells or lysates may run through a third protein. Some results given as binding are weak or reduced against the parent protein; the word gives no strength.
Target: human ORAI1-GFP (human) (UniProt Q96D31)
Test: co-IP; ORAI1-GFP captured with GFP-Trap agarose beads from clarified U2OS lysates (0.8-1 mg; 1% Nonidet P40 buffer), 1 h at 4 °C; washed once with lysis buffer with 0.15 M NaCl; co-precipitated proteins seen by immunoblot; cells starved, with or without 50 ng/ml EGF (up to 3 min), with or without 50 uM NSC 23766 for 8 h

Sequences of proteins named here, by UniProt entry; tags and fusion partners are left off.
UniProt Q96D31: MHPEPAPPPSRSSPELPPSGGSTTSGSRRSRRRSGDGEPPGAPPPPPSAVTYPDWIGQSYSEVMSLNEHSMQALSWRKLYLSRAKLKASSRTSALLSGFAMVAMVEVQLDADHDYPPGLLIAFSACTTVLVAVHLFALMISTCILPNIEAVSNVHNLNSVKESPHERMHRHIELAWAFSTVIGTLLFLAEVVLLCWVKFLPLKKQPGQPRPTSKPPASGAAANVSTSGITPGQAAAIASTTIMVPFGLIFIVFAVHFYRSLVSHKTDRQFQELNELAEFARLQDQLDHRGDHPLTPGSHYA
UniProt Q60598: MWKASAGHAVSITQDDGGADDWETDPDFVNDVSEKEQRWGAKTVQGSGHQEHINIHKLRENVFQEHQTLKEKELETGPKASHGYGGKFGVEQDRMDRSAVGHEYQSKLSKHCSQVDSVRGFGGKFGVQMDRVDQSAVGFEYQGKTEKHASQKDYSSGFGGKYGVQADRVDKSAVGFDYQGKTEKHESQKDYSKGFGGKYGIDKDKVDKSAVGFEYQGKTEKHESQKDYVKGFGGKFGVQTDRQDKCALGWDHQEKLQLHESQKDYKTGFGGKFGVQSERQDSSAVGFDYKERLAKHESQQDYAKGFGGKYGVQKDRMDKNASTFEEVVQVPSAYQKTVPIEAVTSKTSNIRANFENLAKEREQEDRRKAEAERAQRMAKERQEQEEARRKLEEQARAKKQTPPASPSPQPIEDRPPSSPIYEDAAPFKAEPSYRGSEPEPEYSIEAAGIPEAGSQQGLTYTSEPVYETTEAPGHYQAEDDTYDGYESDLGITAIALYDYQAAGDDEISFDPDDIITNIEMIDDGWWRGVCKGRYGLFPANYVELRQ
UniProt Q7L576: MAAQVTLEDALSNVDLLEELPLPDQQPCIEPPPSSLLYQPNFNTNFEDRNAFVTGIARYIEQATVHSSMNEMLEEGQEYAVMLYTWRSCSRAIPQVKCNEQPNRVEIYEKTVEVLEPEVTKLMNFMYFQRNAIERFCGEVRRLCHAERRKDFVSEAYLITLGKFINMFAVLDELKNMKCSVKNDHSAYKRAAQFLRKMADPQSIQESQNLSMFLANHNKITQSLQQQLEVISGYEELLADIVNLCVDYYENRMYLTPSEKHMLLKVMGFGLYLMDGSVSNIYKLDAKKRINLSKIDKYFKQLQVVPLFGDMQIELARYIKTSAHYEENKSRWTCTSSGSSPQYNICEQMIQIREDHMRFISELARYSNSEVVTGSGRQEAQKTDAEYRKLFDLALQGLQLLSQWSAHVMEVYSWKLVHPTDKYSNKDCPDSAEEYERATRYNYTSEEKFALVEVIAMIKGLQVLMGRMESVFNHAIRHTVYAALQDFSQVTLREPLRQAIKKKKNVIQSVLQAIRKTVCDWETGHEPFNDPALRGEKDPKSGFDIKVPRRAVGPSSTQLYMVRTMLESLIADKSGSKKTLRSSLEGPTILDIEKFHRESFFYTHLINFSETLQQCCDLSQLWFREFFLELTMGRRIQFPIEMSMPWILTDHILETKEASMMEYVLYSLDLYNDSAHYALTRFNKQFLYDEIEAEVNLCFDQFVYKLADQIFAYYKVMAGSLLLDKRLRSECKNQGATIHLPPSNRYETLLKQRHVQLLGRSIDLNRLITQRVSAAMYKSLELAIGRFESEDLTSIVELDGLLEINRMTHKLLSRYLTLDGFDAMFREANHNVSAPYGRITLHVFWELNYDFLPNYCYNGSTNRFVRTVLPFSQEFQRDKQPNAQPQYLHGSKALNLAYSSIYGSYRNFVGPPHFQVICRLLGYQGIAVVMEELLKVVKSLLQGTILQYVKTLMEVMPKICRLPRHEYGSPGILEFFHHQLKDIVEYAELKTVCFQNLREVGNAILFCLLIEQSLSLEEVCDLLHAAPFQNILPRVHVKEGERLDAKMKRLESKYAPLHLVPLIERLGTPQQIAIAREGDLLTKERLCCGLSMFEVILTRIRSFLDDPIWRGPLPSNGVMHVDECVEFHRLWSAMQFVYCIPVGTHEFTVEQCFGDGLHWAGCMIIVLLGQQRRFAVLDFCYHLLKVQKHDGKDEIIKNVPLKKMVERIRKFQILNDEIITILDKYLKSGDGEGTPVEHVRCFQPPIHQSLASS
UniProt Q14247: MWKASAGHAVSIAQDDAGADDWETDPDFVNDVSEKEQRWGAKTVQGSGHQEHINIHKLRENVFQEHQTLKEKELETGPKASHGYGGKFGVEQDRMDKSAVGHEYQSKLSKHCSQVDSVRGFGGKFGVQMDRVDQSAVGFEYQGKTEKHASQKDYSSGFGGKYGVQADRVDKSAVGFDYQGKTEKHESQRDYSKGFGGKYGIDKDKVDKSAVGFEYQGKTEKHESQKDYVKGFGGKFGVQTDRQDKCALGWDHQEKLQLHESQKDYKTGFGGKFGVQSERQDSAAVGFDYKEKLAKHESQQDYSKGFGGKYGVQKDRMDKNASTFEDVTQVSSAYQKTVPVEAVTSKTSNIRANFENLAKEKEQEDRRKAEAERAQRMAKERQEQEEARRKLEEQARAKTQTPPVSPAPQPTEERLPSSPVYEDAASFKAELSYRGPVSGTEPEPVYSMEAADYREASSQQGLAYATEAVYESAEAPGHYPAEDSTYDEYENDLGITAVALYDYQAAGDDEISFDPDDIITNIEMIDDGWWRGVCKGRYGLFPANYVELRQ

Substance | binding
mCherry-cortactin (from UniProt Q60598 1-546) | binds
endogenous CYFIP1 (cytosolic FMR-interacting protein 1) (from UniProt Q7L576 1-1253) | binds
endogenous cortactin (CTTN) (from UniProt Q14247 1-550) | binds

— publication PMC7171199
